Measured values: the supplement of paper PMC3334620
Whole data set: some 33,000 sequences, median “E-score (-0.5 to 0.5)” near -0.015, cut for the highest 2% near 0.3. The list shows a part of the results.

These sequences were tested against T1, Abf1 (UniProt P14164) (assay: PBM E-score (8-mer binding enrichment) (E-score (-0.5 to 0.5)); higher = stronger / more preferred TF binding). Conditions: protein concentration: 200 nM; construct: GST-full length.
T1 sequence: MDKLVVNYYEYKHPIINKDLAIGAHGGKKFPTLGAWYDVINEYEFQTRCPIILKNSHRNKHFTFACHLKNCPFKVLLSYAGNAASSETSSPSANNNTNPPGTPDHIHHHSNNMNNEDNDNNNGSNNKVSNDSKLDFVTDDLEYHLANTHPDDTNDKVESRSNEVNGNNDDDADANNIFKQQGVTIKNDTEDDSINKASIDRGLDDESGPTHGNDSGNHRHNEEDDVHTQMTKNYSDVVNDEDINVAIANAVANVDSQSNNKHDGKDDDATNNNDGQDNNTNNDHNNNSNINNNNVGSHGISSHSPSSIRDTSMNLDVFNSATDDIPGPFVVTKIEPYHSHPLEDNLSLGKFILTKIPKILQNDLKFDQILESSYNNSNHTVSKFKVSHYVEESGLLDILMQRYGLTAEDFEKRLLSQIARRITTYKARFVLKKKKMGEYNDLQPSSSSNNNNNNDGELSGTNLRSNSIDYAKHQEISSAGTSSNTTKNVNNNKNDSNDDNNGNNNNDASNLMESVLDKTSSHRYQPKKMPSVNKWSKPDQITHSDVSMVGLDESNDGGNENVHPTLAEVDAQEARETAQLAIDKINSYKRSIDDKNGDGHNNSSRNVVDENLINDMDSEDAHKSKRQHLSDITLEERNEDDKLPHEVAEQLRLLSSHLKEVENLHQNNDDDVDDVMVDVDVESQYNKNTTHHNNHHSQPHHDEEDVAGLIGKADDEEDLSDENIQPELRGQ
Summary of the method: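 The E-score, a modified Wilcoxon-Mann-Whitney statistic, was computed by the Universal PBM Analysis Suite for every ungapped eight-base word pooled with its reverse complement. Scans behind it were normalised with masliner after bound GST-tagged yeast transcription factors were detected with fluorescent anti-GST. The proteins, at about 100-200 nM, had been applied to universal all-10-mer Agilent arrays made double-stranded by primer extension.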

Sequence	PBM E-score
CACGACAC	0.296
CCACAAGA	-0.0548
AGGTGCGC	-0.0151
CGAACCCC	-0.259
ATGTTGTC	0.102
GAATTCTA	0.162
GTACTCCA	0.0416
GAAGTTCC	-0.114
GCGACAAC	0.191
AAGTAACC	-0.0803
CTGAACCC	-0.0887
CCAACGAA	0.112
CTATAAAA	0.106
ATCGTATG	0.302
GCCTAATA	0.0617
ATGCGTCA	0.174
TAGACCGA	-0.0989
CCTCATTC	-0.114
AACGTCAT	0.217
AGTTAGGC	-0.0539
ACGTCCGG	-0.131
AGCATCAA	0.00606
ACGCTGAA	0.0402
GGGCTTTA	-0.313
CACTTGTC	0.122

Already shown: an excerpt of the list.
Sequence	PBM E-score
AACGTCAT	0.217
AGTTAGGC	-0.0539
ACGTCCGG	-0.131
AGCATCAA	0.00606
ACGCTGAA	0.0402
GGGCTTTA	-0.313
CACTTGTC	0.122

Going on with the list.

Sequence	PBM E-score
AGTCCCGA	-0.196
CTCGCTGC	0.0747
TAACTCCA	0.0969
GCGCCTCC	-0.225
CTAGCCGA	-0.209
GTCCAACA	0.025
CTTATGGC	0.034
AAGACCGT	0.0533
CTGGCACA	0.00341
ATTTTCGC	0.123
ACCTAAGG	-0.0147
ATGGGATG	-0.152
GCCAGGCC	-0.0562
AACTCAAC	0.00323
GTCATCAA	0.31
GCGTAGTA	-0.0958
AATAGCAC	-0.247
CAAATGAC	0.144
GACCCGGC	-0.208
GCGGCACA	0.112
AAGCGAGA	-0.0593
ACCTCGGA	0.032
TCTACAGA	-0.175
AGCAAACG	-0.163
ATGAGCGA	0.0981

Sequence	PBM E-score
GTTTAGCA	0.0886
ATTTAACC	-0.18
CACGTTGA	0.14
GGTTCGGA	-0.0766
CCAAGAGA	-0.0641
CTCCGGGA	-0.219
AGATGCGA	0.0196
CATCTGCG	-0.0622
CCCTCTCC	-0.362
ATATGTGA	0.0846
CCGACAAG	-0.118
CCAGTGGA	0.0179
CGTTTTGA	0.182
AGTTGAAA	-0.115
ATAGTAGG	0.0397
AGGTTCAA	-0.0587
CTTCACAC	0.23
TGGCACAA	-0.0301
ATAACTGA	0.0287
GTTGAAAC	0.0693
GGGCGGAC	-0.195
TACCTAAA	-0.0501
CTGTGCGC	-0.0791
CCATTAAC	0.127
AGACTCTC	-0.195

Sequence	PBM E-score
GAGTAATA	0.18
ACATTACT	-0.0384
CGAGATTA	0.215
AAGAAGCC	-0.011
TCGTGGAA	0.336
AATGGCGA	0.185
ACACCGTG	0.0786
CCGGTTGC	0.13
GAGAGCGA	-0.0638
AATTCGTA	0.307
CCTTTGCC	-0.0466
CACACATG	-0.151
GTGCTTTA	0.142
ACATTAGA	0.0369
CCTAATAG	0.0821
CGTTGCAG	0.205
GGTGTGAA	0.144
CCAACCCG	-0.194
GGCTTGAA	0.0631
CAAGATGG	-0.203
CCACTGCA	0.0149
GGTTTTAA	-0.0516
AGACCCTG	-0.21
AACATGCA	-0.0478
CCTAGCTC	-0.114

Sequence	PBM E-score
TAATCGAA	0.152
GCGAAAAA	0.116
AGACGGCC	-0.0278
AAATGGGA	-0.142
CAAATTGG	0.0993
AGGGGTTA	-0.299
GCCTTCAC	-0.0689
AGACCTAC	-0.0784
CATCTAAG	-0.118
CACTTTGG	-0.0212
TCGATAAA	0.207
ACTACTAT	0.205
GTCACACA	0.0829
CTGTCAAA	0.11
ATAGGCAT	-0.194
CGTGGATC	0.201
GATGGCGC	-0.00326
GACTCGAA	-0.0594
TAATTCAA	0.198
ACGTAAGA	0.207
AATCAACA	0.224
CTTGAGCC	-0.29
GAGCTCTA	-0.103
CGCCTGGA	-0.0844
GCGAGTCC	-0.196

Sequence	PBM E-score
CTGTCGCC	-0.202
ATCGGGCC	-0.284
CCGTGCGA	0.354
CTGAAAGA	0.089
TCTAGACA	-0.0266
ACATCTAG	-0.069
CTTCATAC	0.235
ATCAACAC	0.223
AAGCAGAC	-0.202
AGTGGAAA	-0.124
GCCTTCGA	-0.206
GGCAATAC	0.0605
CGAGACCG	-0.081
GATTTGCA	-0.0592
AACTCCTG	-0.177
AACCGATA	-0.00877
TATCTCAA	0.229
ACCATGGC	0.021
CTTATCCA	0.0016
CCATCCCG	-0.112
AAAAGATA	0.182
TCAACAGA	-0.063
CGCAGTGC	-0.191
AGCGAGAA	-0.0126
ACGTATCG	0.212

Sequence	PBM E-score
ACGGCTCA	0.226
ATACTAAC	0.0585
CAGAAGCA	-0.146
ACGTGCTC	-0.221
CACGTAGG	0.132
ACGTACTG	0.101
CCCGGGCG	-0.0645
CTTATTAC	0.174
ACCGTGCC	0.0366
CGGAATTC	0.00056
GATCACCC	0.261
CGTGCACC	-0.147
ACTGCTGG	-0.18
ACCTACTG	-0.119
CTGCGAGA	-0.281
ATGTATTC	-0.0287
ACACCTGC	-0.203
TCCTGTAA	-0.0524
ACAATTCA	0.00882
CTCGGCCA	-0.153
CTACCCAC	-0.106
AAAGTTTG	0.0446
